Experimental findings from patent US12037644B2, “Use of FGFR mutant gene panels in identifying cancer patients that will be responsive to treatment with an FGFR inhibitor” (Janssen Pharmaceutica NV, priority 2014, dated 2024) are described below.

In one test the test system is RK3E-Transgene KRAS. The test can be described thus: Drug response testing (Cell Titer-Glo proliferation), RK3E KRAS. The note with it: Rattus norvegicus, 72 h, read-out: Stimulated Proliferation (IC50). (Cellular ATP, detected with luciferase, serves as a proxy for viable cell number.)
For test [1], the system named is RK3E-Transgene TACC3-V1 (FGFR fusion stably transfected RK3E cells). The test can be described thus: Drug response testing (Cell Titer-Glo proliferation), RK3E FGFR3:TACC3 v1. The note with it: Rattus norvegicus, 72 h, read-out: Stimulated Proliferation (IC50).
Test [2] concerns RK3E-Transgene TACC3-V3 (FGFR fusion stably transfected RK3E cells). The test can be described thus: Drug response testing (Cell Titer-Glo proliferation), RK3E FGFR3:TACC3 v3. The conditions noted are these: Rattus norvegicus, 72 h, read-out: Stimulated Proliferation (IC50).
Test [3] relates to RK3E-Transgene Vector (empty vector control RK3E cells). Description: Drug response testing (Cell Titer-Glo proliferation), RK3E empty vector control. The conditions noted are these: Rattus norvegicus, 72 h, read-out: Stimulated Proliferation (IC50).
Test [4] relates to FGFR fusion stably transfected RK3E cells. The test can be described thus: Drug response testing for FGFR-fusion overexpressing cell lines (overall statement). The note with it: empty vector control did not show sensitivity.

Regarding `COc1cc(OC)cc(N(CCNC(C)C)c2ccc3ncc(-c4cnn(C)c4)nc3c2)c1` [JNJ-42756493, N-(3,5-dimethoxyphenyl)-N′-(1-methylethyl)-N-[3-(1-methyl-1H-pyrazol-4-yl)quinoxalin-6-yl]ethane-1,2-diamine], the IC50 with RK3E-Transgene KRAS is 1620 nM; in test [1], 0.291 nM; in test [2], 0.271 nM; in test [3], 7010 nM. Besides, in test [4], the “sensitivity of cells harboring the FGFR fusions to the FGFR inhibitor in vitro” value is “showed sensitivity”.
